The experiment has as its target Flag-mut-PDIA5 (human) (UniProt Q14554). The experiment can be described thus: co-IP; U87MG and U251MG cells stably overexpressing Flag-mut-PDIA5 and HA-CCAR1; lysate incubated with Flag antibody or rabbit IgG at 4°C for 6 h; blot with HA antibody; called bidirectional in the results.

Amino acid sequences for entries named in this document (tags omitted). A change or cut given only in a name is not applied to a line headed by its entry.
UniProt Q14554: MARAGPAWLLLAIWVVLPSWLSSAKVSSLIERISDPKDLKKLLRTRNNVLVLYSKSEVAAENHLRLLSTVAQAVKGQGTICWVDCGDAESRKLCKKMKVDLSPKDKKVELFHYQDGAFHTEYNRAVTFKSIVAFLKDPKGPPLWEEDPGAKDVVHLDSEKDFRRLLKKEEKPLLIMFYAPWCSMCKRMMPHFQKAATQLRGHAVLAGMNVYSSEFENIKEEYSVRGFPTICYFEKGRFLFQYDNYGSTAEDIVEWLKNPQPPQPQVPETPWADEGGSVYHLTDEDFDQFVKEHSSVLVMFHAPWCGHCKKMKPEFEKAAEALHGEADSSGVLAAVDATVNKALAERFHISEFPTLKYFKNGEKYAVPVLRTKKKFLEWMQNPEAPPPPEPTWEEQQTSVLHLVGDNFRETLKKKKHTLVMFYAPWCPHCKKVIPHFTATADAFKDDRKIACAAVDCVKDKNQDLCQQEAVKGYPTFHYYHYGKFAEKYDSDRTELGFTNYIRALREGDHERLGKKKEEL

These are yes or no findings as the source states them, for the method shown. In cells and extracts the contact can be indirect. A result given as binding can be weak or reduced; the word gives no strength. Sequences can lack the tags named with a protein.

Here are results for 1 molecule from paper PMC11379074.

B1: HA-CCAR1 (in GBM cells) (protein, UniProt Q8IX12 1-1150)
chain: MAQFGGQKNPPWATQFTATAVSQPAALGVQQPSLLGASPTIYTQQTALAAAGLTTQTPANYQLTQTAALQQQAAAAAAALQQQYSQPQQALYSVQQQLQQPQQTLLTQPAVALPTSLSLSTPQPTAQITVSYPTPRSSQQQTQPQKQRVFTGVVTKLHDTFGFVDEDVFFQLSAVKGKTPQVGDRVLVEATYNPNMPFKWNAQRIQTLPNQNQSQTQPLLKTPPAVLQPIAPQTTFGVQTQPQPQSLLQAQISAASITPLLQTQPQPLLQQPQQKAGLLQPPVRIVSQPQPARRLDPPSRFSGRNDRGDQVPNRKDDRSRERERERRRSRERSPQRKRSRERSPRRERERSPRRVRRVVPRYTVQFSKFSLDCPSCDMMELRRRYQNLYIPSDFFDAQFTWVDAFPLSRPFQLGNYCNFYVMHREVESLEKNMAILDPPDADHLYSAKVMLMASPSMEDLYHKSCALAEDPQELRDGFQHPARLVKFLVGMKGKDEAMAIGGHWSPSLDGPDPEKDPSVLIKTAIRCCKALTGIDLSVCTQWYRFAEIRYHRPEETHKGRTVPAHVETVVLFFPDVWHCLPTRSEWETLSRGYKQQLVEKLQGERKEADGEQDEEEKDDGEAKEISTPTHWSKLDPKTMKVNDLRKELESRALSSKGLKSQLIARLTKQLKVEEQKEEQKELEKSEKEEDEDDDRKSEDDKEEEERKRQEEIERQRRERRYILPDEPAIIVHPNWAAKSGKFDCSIMSLSVLLDYRLEDNKEHSFEVSLFAELFNEMLQRDFGVRIYKSLLSLPEKEDKKEKDKKSKKDERKDKKEERDDETDEPKPKRRKSGDDKDKKEDRDERKKEDKRKDDSKDDDETEEDNNQDEYDPMEAEEAEDEEDDRDEEEMTKRDDKRDINRYCKERPSKDKEKEKTQMITINRDLLMAFVYFDQSHCGYLLEKDLEEILYTLGLHLSRAQVKKLLNKVVLRESCFYRKLTDTSKDEENHEESESLQEDMLGNRLLLPTPTVKQESKDVEENVGLIVYNGAMVDVGSLLQKLEKSEKVRAEVEQKLQLLEEKTDEDEKTILNLENSNKSLSGELREVKKDLSQLQENLKISENMNLQFENQMNKTIRNLSTVMDEIHTVLKKDNVKNEDKDQKSKENGASV
Take B1: the binding result is recorded as “binds”.
